In patent US20220265769A1, “COMPOSITIONS AND METHODS OF TREATMENT FOR BREAST CANCER INVOLVING A NOVEL CAPER?-MLL1 COMPLEX” (Geisinger Health, priority 2019, published 2022):

Legend:
[1] = target: MLL2 (human); test: co-IP, T47D and MDA-MB231 cells (FIG. 35A)
[2] = target: MLL2 (human); test: IP and immunoblot, T47D cells

- binding [1]: binds
- binding [2]: binds
B1: CAPERα (Coactivator of AP1 and Estrogen Receptor) (protein, human, UniProt Q14498 2-530, looked up)
chain: ADDIDIEAMLEAPYKKDENKLSSANGHEERSKKRKKSKSRSRSHERKRSKSKERKRSRDRERKKSKSRERKRSRSKERRRSRSRSRDRRFRGRYRSPYSGPKFNSAIRGKIGLPHSIKLSRRRSRSKSPFRKDKSPVREPIDNLTPEERDARTVFCMQLAARIRPRDLEEFFSTVGKVRDVRMISDRNSRRSKGIAYVEFVDVSSVPLAIGLTGQRVLGVPIIVQASQAEKNRAAAMANNLQKGSAGPMRLYVGSLHFNITEDMLRGIFEPFGRIESIQLMMDSETGRSKGYGFITFSDSECAKKALEQLNGFELAGRPMKVGHVTERTDASSASSFLDSDELERTGIDLGTTGRLQLMARLAEGTGLQIPPAAQQALQMSGSLAFGAVAEFSFVIDLQTRLSQQTEASALAAAASVQPLATQCFQLSNMFNPQTEEEVGWDTEIKDDVIEECNKHGGVIHIYVDKNSAQGNVYVKCPSIAAAIAAVNALHGRWFAGKMITAAYVPLPTYHNLFPDSMTATQLLVPSRR

Results are given in words; binding and its absence hold for the method and conditions named. Binding can be weak; no strength is given. For some assays here: Binding seen in cells or lysates may run through a third protein.
